Taken from: PubChem BioAssay AID1224827 (NIAID, 2016)
This is one part, drawn at random, of about 3,800 deposited reagents. About 2,200 of them (57%) count as active. 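Active means a strong reporter change in either direction; calls are per siRNA, not per gene; qiagen siRNAs gave weaker effects.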 Further read-outs or replicates are left out here.

Purpose: 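Retest primary hits on a TNF reporter with six siRNAs per gene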 (follow-up of hits)
Cells: RAW264.7 G9 mouse macrophage reporter clone
Reagents: single siRNA against mouse genes, 100 nM siRNA
Duration: siRNA for 2 days, then LPS about 16 h
Challenge: bacterial lipopolysaccharide (LPS), 10 ng/ml, cells fixed after overnight (about 16 h) stimulation
Read-out: 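Imaged nuclear TNF reporter intensity, background removed, scaled per plate and to non-targeting control wells, as z-scores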
Direction: TNF reporter z-score, mean: higher = stronger Tnf promoter reporter signal
Rule for the call: 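An siRNA is called active when its mean z-score over replicates is at least +2 or at most -2; control wells get no call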

TNF reporter z-score, mean, by target gene and reagent
Ces2e (carboxylesterase 2E): SID315488421 3.27 active; SID315488422 -3.49 active; SID315488423 -4.31 active; SID315488424 0.951 inactive; SID315488425 0.621 inactive; SID315488426 -0.815 inactive
Sftpd (surfactant associated protein D): SID315484860 0.731 inactive; SID315484861 -2.18 active; SID315484862 -4.95 active; SID315484863 0.311 inactive; SID315484864 -1.7 inactive; SID315484865 -2.01 active
Prdx2 (peroxiredoxin 2): SID315484974 0.746 inactive; SID315484975 -0.547 inactive; SID315484976 -1.87 inactive; SID315484977 -0.0966 inactive; SID315484978 -1.52 inactive; SID315484979 -2.05 active
Gab1 (growth factor receptor bound protein 2-associated protein 1): SID315484176 8.59 active; SID315484177 -4.65 active; SID315484178 -5 active; SID315484179 2.79 active; SID315484180 2.09 active; SID315484181 -2.48 active
Zkscan14 (zinc finger with KRAB and SCAN domains 14): SID315486444 -1.34 inactive; SID315486445 -2.41 active; SID315486446 -4.17 active; SID315486447 6.98 active; SID315486448 2.25 active; SID315486449 0.602 inactive
Calm4 (calmodulin 4): SID315487053 6.21 active; SID315487054 -1.81 inactive; SID315487055 -3.66 active; SID315487056 5.64 active; SID315487057 0.524 inactive; SID315487058 -1.93 inactive

13 entries already listed, ordered by “TNF reporter z-score, mean”, highest first.
target gene	PubChem SID	TNF reporter z-score, mean	outcome
Gab1 (growth factor receptor bound protein 2-associated protein 1)	SID315484176	8.59	active
Zkscan14 (zinc finger with KRAB and SCAN domains 14)	SID315486447	6.98	active
Gab1 (growth factor receptor bound protein 2-associated protein 1)	SID315484179	2.79	active
Gab1 (growth factor receptor bound protein 2-associated protein 1)	SID315484180	2.09	active
Prdx2 (peroxiredoxin 2)	SID315484977	-0.0966	inactive
Zkscan14 (zinc finger with KRAB and SCAN domains 14)	SID315486444	-1.34	inactive
Prdx2 (peroxiredoxin 2)	SID315484978	-1.52	inactive
Prdx2 (peroxiredoxin 2)	SID315484979	-2.05	active
Zkscan14 (zinc finger with KRAB and SCAN domains 14)	SID315486445	-2.41	active
Gab1 (growth factor receptor bound protein 2-associated protein 1)	SID315484181	-2.48	active
Zkscan14 (zinc finger with KRAB and SCAN domains 14)	SID315486446	-4.17	active
Gab1 (growth factor receptor bound protein 2-associated protein 1)	SID315484177	-4.65	active
Gab1 (growth factor receptor bound protein 2-associated protein 1)	SID315484178	-5	active

Additional records follow.
TNF reporter z-score, mean, by target gene and reagent
Gata3 (GATA binding protein 3): SID315484188 -0.546 inactive; SID315484189 -2.91 active; SID315484190 -4.39 active; SID315484191 4.65 active; SID315484192 2.27 active; SID315484193 -1.06 inactive
Or8g24 (olfactory receptor family 8 subfamily G member 24): SID315488634 -3.41 active; SID315488635 -3.43 active; SID315488636 -4.58 active; SID315488637 1.93 inactive; SID315488638 0.274 inactive; SID315488639 -0.374 inactive
Large1 (LARGE xylosyl- and glucuronyltransferase 1): SID315484485 9.71 active; SID315484486 -0.537 inactive; SID315484487 -3.27 active; SID315484488 0.454 inactive; SID315484489 0.391 inactive; SID315484490 -2.79 active
Cyth2 (cytohesin 2): SID315484683 0.637 inactive; SID315484684 -3.28 active; SID315484685 -3.42 active; SID315484686 1.11 inactive; SID315484687 -1.68 inactive; SID315484688 -2.36 active
Abcb10 (ATP-binding cassette, sub-family B member 10): SID315485949 -2.9 active; SID315485950 -5.06 active; SID315485951 -5.42 active; SID315485952 1.78 inactive; SID315485953 -0.36 inactive; SID315485954 -2.86 active
Fam221b (family with sequence similarity 221, member B): SID315488496 -3.67 active; SID315488497 -3.84 active; SID315488498 -4.46 active; SID315488499 2.53 active; SID315488500 2.15 active; SID315488501 -1.93 inactive
Rpl11 (ribosomal protein L11): SID315486426 -3.02 active; SID315486427 -3.43 active; SID315486428 -4.25 active; SID315486429 0.448 inactive; SID315486430 -2.39 active; SID315486431 -3.31 active
